Data taken from patent publication US6872803B1, “Peptides” (Kyowa Hakko Kogyo Co., Ltd., priority 1993, dated 2005).
At least one compound was matched to its structure with a doubt left. Where a SMILES comes first, the peptide text is derived from it. Bridges are numbered along the chain shown (N, C = ends).

Tests used:
[1] = system: platelet-rich plasma (PRP); experiment: Inhibitory activity against agglutination of platelets stimulated by collagen; format: cell-based, white rabbit; settings: collagen 10 μg/ml
Protocol: The blood was collected from the heart of a white rabbit (male weight 2 kg) and mixed with 3.8% sodium citrate (1:9 3.8% sodium citrate/blood). The mixture was centrifuged at 900 r.p.m., and the supernatant was isolated as platelet-rich plasma (PRP). The remaining lower layer was centrifuged at 2500 r.p.m., and the supernatent was isolated as platelet-poor plasma (PPP). These isolates were used in the following test. The percentage of platelet agglutination was measured, using a platelet agglutination measuring device, TE-500 (produced by Elmer Optical Co.). As the standard for platelet agglutination in this test, the percentage of platelet agglutination measured in PRP only was defined as 0%, while that measured in PPP only as 100%. Test solutions each containing a test compound, compound (1) or compound (b) were prepared so as to give a final concentration of 1, 0.3 or 0.1 mM.
Ten μl of re-distilled water (as a control) or the test solution and 200 μl of PRP were put into a cuvet and pre-incubated for 3 minutes, then 10 μl of a collagen that had been prepared to have a final concentration of 10 μg/ml were added thereto, and the percentage of platelet agglutination was measured.

[2] = system: B16-F10 (mouse melanoma) cells; experiment: Cell-adhesion inhibiting activity (adhesion of biotin-labeled cells to mouse fibronectin-coated plate); format: cell-based; settings: same test, compound (2) versus compound (c)
Protocol: To a 96-well flat bottom plate (Sumitomo Bakelite Co.) added were […] (5 μg/ml-culture) of mouse fibronectin (produced by Telios Pharmaceutical Inc.). The plate was allowed to stand for 2 hours at room temperature to coat with mouse fibronectin. Each solution was added to the plate. Next, biotin-labeled B16-F10 (mouse melanoma) cells were added thereto and incubated at 37° C. for 30 minutes. After incubation, the non-adhered cells were removed by suction, and the adhered cells were fixed by 0.25% glutaraldehyde/PBS. The thus-fixed cells were washed with Tween-PBS, and peroxidase-labeled avidin D (Vector Co.) was added thereto and reacted for one hour at room temperature. Thereafter, the cells were washed with Tween-PBS and colored with an ABTS solution. Using NJ-2001 (Nippon Intermed Co.), the absorbance of the colored cells at OD415 was measured by colorimetry.
From the absorbance thus measured, the percentage inhibition of adhesion of the cells was obtained according to the following equation: Percentage Inhibition of Cell Adhesion=[(A−B)/A]×100 • A: absorbance in the absence of the test compound • B: absorbance in the presence of the test compound […]

| Compound | Percentage of platelet agglutination inhibition (%) ([1]; test compound 0.1 mM) | Percentage of platelet agglutination inhibition (%) ([1]; test compound 0.3 mM) | Percentage of platelet agglutination inhibition (%) ([1]; test compound 1.0 mM) | cell adhesion-inhibiting activity (comparison, FIG. 2) [2] |
| --- | --- | --- | --- | --- |
| CC(C)[C@H](NC(=O)[C@H](Cc1c[nH]c2ccccc12)NC(=O)[C@@H]1CC(=O)NCC(=O)N[C@@H](CC(N)=O)C(=O)N[C@@H](Cc2c[nH]c3ccccc23)C(=O)N[C@@H](Cc2c[nH]cn2)C(=O)NCC(=O)N[C@@H]([C@@H](C)O)C(=O)N[C@@H](C)C(=O)N2CCC[C@H]2C(=O)N1)C(=O)N[C@H](C(=O)NCC(=O)N[C@@H](CCCNC(=N)N)C(=O)NCC(=O)N[C@@H](CC(=O)O)C(=O)N[C@@H](CO)C(=O)N1CCC[C@H]1C(=O)N[C@@H](C)C(=O)O)[C@@H](C)O [Compound 1] (GNWHGTAPDWVTGRGDSPA-OH; lactam N-9) | 28.3 | 78.4 | 92.1 | – |
| CC(C)[C@H](NC(=O)[C@H](C)NC(=O)[C@H](Cc1ccc(O)cc1)NC(=O)[C@@H](NC(=O)[C@H](Cc1c[nH]c2ccccc12)NC(=O)[C@@H]1CC(=O)NCC(=O)N[C@@H](CC(N)=O)C(=O)N[C@@H](Cc2c[nH]c3ccccc23)C(=O)N[C@@H](Cc2c[nH]cn2)C(=O)NCC(=O)N[C@@H]([C@@H](C)O)C(=O)N[C@@H](C)C(=O)N2CCC[C@H]2C(=O)N1)C(C)C)C(=O)N[C@H](C(=O)NCC(=O)N[C@@H](CCCNC(=N)N)C(=O)NCC(=O)N[C@@H](CC(=O)O)C(=O)N[C@@H](CO)C(=O)N1CCC[C@H]1C(=O)N[C@@H](C)C(N)=O)[C@@H](C)O [Compound 2] (GNWHGTAPDWVYAVTGRGDSPA-NH2; lactam N-9) | – | – | – | almost the same cell adhesion-inhibiting activity |
